Source: PMC12125883
Results are given in words; binding and its absence hold for the method and conditions named. In cells and extracts the contact can be indirect. Some binding calls cover weakened binding; strength is not graded here.

By UniProt entry, the sequences of proteins in these tests, tags left out.
UniProt Q13950: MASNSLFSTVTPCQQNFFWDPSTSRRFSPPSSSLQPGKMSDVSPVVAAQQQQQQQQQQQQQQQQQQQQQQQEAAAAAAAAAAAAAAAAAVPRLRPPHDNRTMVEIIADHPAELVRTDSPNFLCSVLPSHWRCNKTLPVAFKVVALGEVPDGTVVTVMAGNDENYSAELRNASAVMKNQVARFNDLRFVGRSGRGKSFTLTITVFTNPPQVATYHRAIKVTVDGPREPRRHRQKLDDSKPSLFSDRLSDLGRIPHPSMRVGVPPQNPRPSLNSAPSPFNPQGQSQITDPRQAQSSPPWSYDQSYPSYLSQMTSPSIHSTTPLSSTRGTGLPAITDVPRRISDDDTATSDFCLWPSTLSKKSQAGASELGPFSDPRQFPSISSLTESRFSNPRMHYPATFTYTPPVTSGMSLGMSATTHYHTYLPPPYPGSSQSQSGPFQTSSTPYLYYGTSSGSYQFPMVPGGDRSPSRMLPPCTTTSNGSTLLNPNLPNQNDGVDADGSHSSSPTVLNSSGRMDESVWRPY
UniProt Q93009: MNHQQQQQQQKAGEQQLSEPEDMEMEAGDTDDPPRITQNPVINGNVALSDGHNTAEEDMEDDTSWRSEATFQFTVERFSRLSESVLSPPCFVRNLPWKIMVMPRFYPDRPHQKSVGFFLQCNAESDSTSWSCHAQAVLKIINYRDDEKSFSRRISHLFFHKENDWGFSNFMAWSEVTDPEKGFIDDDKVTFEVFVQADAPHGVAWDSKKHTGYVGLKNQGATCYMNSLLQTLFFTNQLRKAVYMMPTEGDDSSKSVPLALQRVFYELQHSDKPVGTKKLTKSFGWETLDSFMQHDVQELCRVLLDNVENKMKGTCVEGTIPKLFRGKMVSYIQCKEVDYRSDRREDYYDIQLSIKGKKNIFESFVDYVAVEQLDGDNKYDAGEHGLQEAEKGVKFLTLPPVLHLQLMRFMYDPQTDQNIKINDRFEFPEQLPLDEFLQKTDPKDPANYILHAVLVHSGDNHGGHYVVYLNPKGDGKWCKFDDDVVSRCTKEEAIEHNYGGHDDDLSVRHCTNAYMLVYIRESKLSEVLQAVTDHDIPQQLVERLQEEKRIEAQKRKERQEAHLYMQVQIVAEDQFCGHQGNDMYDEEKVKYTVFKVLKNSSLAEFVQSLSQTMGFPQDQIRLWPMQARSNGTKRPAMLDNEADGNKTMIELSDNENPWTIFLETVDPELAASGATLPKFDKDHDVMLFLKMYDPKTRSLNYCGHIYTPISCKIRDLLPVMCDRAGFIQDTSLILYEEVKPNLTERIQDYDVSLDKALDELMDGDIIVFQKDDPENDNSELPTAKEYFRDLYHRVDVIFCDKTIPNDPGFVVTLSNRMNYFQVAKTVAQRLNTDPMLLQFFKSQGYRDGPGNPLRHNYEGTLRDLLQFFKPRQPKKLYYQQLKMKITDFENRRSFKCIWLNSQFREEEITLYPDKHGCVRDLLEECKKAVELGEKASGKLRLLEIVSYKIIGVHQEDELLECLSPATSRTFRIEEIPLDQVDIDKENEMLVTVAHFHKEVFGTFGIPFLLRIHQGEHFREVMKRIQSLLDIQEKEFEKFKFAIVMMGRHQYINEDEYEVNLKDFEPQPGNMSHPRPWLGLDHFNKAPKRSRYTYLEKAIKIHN

Target: Flag-RUNX2 (Runt-related transcription factor 2) (UniProt Q13950)
Experiment: co-IP; Flag-RUNX2 and HA-USP7 co-transfected into HEK293T cells, lysed after 48 h; immunoprecipitation with Flag or HA antibody, immunoblot

HA-USP7 (ubiquitin-specific protease 7) (from UniProt Q93009 1-1102) (enzyme)
binding: binds
